Experimental data: the RNAGym collection of RNA variant scans (doi:10.1126/science.aae0568)
This sample is rich in variants without activity.

B1: tRNA (parent)
chain: GUUCCGUUGGCGUAAUGGUAACGCGUCUCCCUCCUAAGGAGAAGACUGCGGGUUCGAGUCCCGUACGGAACG

Variants of: B1
Experiment: yeast fitness relative to wild type (ratio to wild type); higher = fitter; tRNA-Arg(CCU), competitive growth, 37 C, YPD
In short: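 Amplicons of the tRNA-Arg(CCU) gene were sequenced, 100-nucleotide paired-end, from the start population and from each end population of a pooled yeast competition. The competition, in six parallel replicates, lasted 24 hours in YPD at 37°C. Fitness relative to wild type was calculated from changes in genotype frequencies. Genotypes had to have ≥ 100 starting reads, and estimates < 0.5 were set to 0.5.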
In the case of G9A A21G C33A C62U G63C A70C, the yeast fitness is reported as ≤ 0.5. For G9A A21U A36G A40C A69U, the yeast fitness was ≤ 0.5. With G9A A36C A40C A45C the yeast fitness was ≤ 0.5. In the case of G9A A40C G68A, the yeast fitness is reported as ≤ 0.5. With G9A A45C C49U the yeast fitness was 0.643. In the case of G9A C11A G44C, the yeast fitness is reported as ≤ 0.5. With G9A C11A U35C A43G U64A the yeast fitness was ≤ 0.5. For G9A C11G C22U A40G G67A, the yeast fitness was ≤ 0.5. In the case of G9A C11G C24G U32A G52C, the yeast fitness is reported as ≤ 0.5. With G9A C11G C55G G63C G67C the yeast fitness was 0.578. In the case of G9A C11U A36C C49G U53G, the yeast fitness is reported as ≤ 0.5. In the case of G9A C11U C29A C55U A57G, the yeast fitness is reported as ≤ 0.5. For G9A C11U C60G C66U G68A, the yeast fitness was ≤ 0.5. For G9A C24G A37C U64A, the yeast fitness was ≤ 0.5. For G9A C27A A42C C49G G51C C55G, the yeast fitness was ≤ 0.5. For G9A C27G C60G C62A, the yeast fitness was ≤ 0.5. Variant G9A C27U A36G has a yeast fitness of 0.59. In the case of G9A C30A G48C, the yeast fitness is reported as ≤ 0.5. Work on G9A C30U yielded a yeast fitness of 0.888. In the case of G9A C33U A36U C62U, the yeast fitness is reported as ≤ 0.5. For G9A C34U U53C A69C, the yeast fitness was ≤ 0.5. With G9A C49A C61U C62A G67C the yeast fitness was ≤ 0.5. With G9A G10A C31G G48A C55A G58C the yeast fitness was ≤ 0.5. In the case of G9A G10A C31G G52A A70G, the yeast fitness is reported as ≤ 0.5. For G9A G10A C66U, the yeast fitness was ≤ 0.5. In the case of G9A G12A A36U G39A, the yeast fitness is reported as ≤ 0.5. For G9A G12A U19G U35C A40U, the yeast fitness was ≤ 0.5. With G9A G12C C31A C33G A43C A69U A70C the yeast fitness was ≤ 0.5. With G9A G12U A14U U53A G67A the yeast fitness was ≤ 0.5. For G9A G23C C29G A43U G50A A65C, the yeast fitness was ≤ 0.5. Variant G9A G50A C55U has a yeast fitness of 0.59. For G9A G51A A57U U59C, the yeast fitness was ≤ 0.5. For G9A G51C G52C A69U, the yeast fitness was ≤ 0.5. In the case of G9A G56A C62A G67A, the yeast fitness is reported as ≤ 0.5. For G9A G58A, the yeast fitness was 0.918. In the case of G9A U16C G41A G58A, the yeast fitness is reported as ≤ 0.5. In the case of G9A U16C U19C C30U G41A U47C, the yeast fitness is reported as ≤ 0.5. With G9A U16C U19G C27A C33U U53C the yeast fitness was ≤ 0.5. With G9A U16C U28A C34U A42C G48C the yeast fitness was ≤ 0.5. For G9A U16G A42C, the yeast fitness was 0.955. With G9A U19C G48C G56C the yeast fitness was ≤ 0.5. In the case of G9A U28C G44A G51C G58C G63A, the yeast fitness is reported as ≤ 0.5. With G9A U35G A65G the yeast fitness was ≤ 0.5. For G9A U47A U53C A57G C66U, the yeast fitness was ≤ 0.5. With G9C A14C A15U G23A C34A U54C A65G the yeast fitness was ≤ 0.5. For G9C A14C C22G U53G G56C, the yeast fitness was ≤ 0.5. In the case of G9C A15G U26C U28C, the yeast fitness is reported as ≤ 0.5. For G9C A15U A69U, the yeast fitness was ≤ 0.5. For G9C A15U C24U, the yeast fitness was ≤ 0.5. In the case of G9C A20C C27U G39A G56A, the yeast fitness is reported as ≤ 0.5. With G9C A20C C49U G51A A65U the yeast fitness was ≤ 0.5. In the case of G9C A20G U26G, the yeast fitness is reported as ≤ 0.5. In the case of G9C A40U A70U, the yeast fitness is reported as ≤ 0.5. In the case of G9C A45G G51A, the yeast fitness is reported as ≤ 0.5. Work on G9C C11G G12C U28C C61U yielded a yeast fitness of 0.747. With G9C C11U C24G C31U C34U C49U A69C the yeast fitness was ≤ 0.5. For G9C C22U A70G, the yeast fitness was ≤ 0.5. In the case of G9C C24A C34U C55U, the yeast fitness is reported as ≤ 0.5. With G9C C24U G48C G51A the yeast fitness was ≤ 0.5. With G9C C27A C33U A36C C55U the yeast fitness was ≤ 0.5. With G9C C27U A36G A42U G63C the yeast fitness was ≤ 0.5. For G9C C29G C34G A65U, the yeast fitness was ≤ 0.5. In the case of G9C C30G G50U, the yeast fitness is reported as ≤ 0.5. In the case of G9C C31A C49G A57U, the yeast fitness is reported as ≤ 0.5. For G9C C33A U59G, the yeast fitness was ≤ 0.5. In the case of G9C C34A C46A G56A, the yeast fitness is reported as ≤ 0.5. With G9C C34G U47C C49U the yeast fitness was ≤ 0.5. For G9C C61U C66A, the yeast fitness was ≤ 0.5. With G9C G10C A69G A70G the yeast fitness was ≤ 0.5. For G9C G12C A40U G41A C66U, the yeast fitness was ≤ 0.5. With G9C G17A A37G G68A the yeast fitness was ≤ 0.5. In the case of G9C G17C C62A, the yeast fitness is reported as ≤ 0.5. In the case of G9C G18C C49G G63A A65U, the yeast fitness is reported as ≤ 0.5. With G9C G23A C24A C55A A70U the yeast fitness was ≤ 0.5. In the case of G9C G23A G50A, the yeast fitness is reported as ≤ 0.5. For G9C G25C C31U, the yeast fitness was ≤ 0.5. With G9C G39A A40G C49G A70C the yeast fitness was ≤ 0.5. For G9C U13A G25A A40C, the yeast fitness was ≤ 0.5. For G9C U16A C49U G68A, the yeast fitness was ≤ 0.5. G9C U16C A69C gave a yeast fitness of 0.562. For G9C U16C C30U U53A, the yeast fitness was ≤ 0.5. For G9C U19A A20G C27U, the yeast fitness was ≤ 0.5. In the case of G9C U19C C31A C60G A65U, the yeast fitness is reported as ≤ 0.5. In the case of G9C U19C C46U G50A G56A, the yeast fitness is reported as ≤ 0.5. For G9C U26G C55A, the yeast fitness was ≤ 0.5. With G9C U28A C29A U35G A70C the yeast fitness was ≤ 0.5. With G9U C11A C24G C30G the yeast fitness was ≤ 0.5. In the case of G9U G25C A43G C61U, the yeast fitness is reported as ≤ 0.5. In the case of G9U U16G C62A G67C, the yeast fitness is reported as ≤ 0.5. In the case of G10A A14C A20G U26G C31G C34G A42U A43C G50C, the yeast fitness is reported as ≤ 0.5. For G10A A14C C29A, the yeast fitness was ≤ 0.5. For G10A A14U C31A C46A A57C, the yeast fitness was ≤ 0.5. For G10A A15C C34A A57U C62U A69U, the yeast fitness was ≤ 0.5. With G10A A15G C34G the yeast fitness was ≤ 0.5. In the case of G10A A20C G38A G41A U47A, the yeast fitness is reported as ≤ 0.5. With G10A A20G A21U U53A C66U the yeast fitness was ≤ 0.5. With G10A A20G A37C G39A A65U A70C the yeast fitness was ≤ 0.5. For G10A A21C A37G G52A C62A, the yeast fitness was ≤ 0.5. With G10A A21C G56C the yeast fitness was ≤ 0.5. With G10A A21G C66A the yeast fitness was ≤ 0.5. In the case of G10A A21U C31A G39C C62G G68A, the yeast fitness is reported as ≤ 0.5. With G10A A37C C55G G63A the yeast fitness was ≤ 0.5. In the case of G10A A37C G48A, the yeast fitness is reported as ≤ 0.5. With G10A A40U C55U the yeast fitness was ≤ 0.5. In the case of G10A A42C A69U, the yeast fitness is reported as ≤ 0.5. With G10A A42G G67A the yeast fitness was ≤ 0.5. With G10A A45C G68A the yeast fitness was ≤ 0.5. G10A A45U C61U showed a yeast fitness of 0.536. With G10A C11G A20G the yeast fitness was ≤ 0.5. For G10A C11G C30G A57G G58A U59A, the yeast fitness was ≤ 0.5. In the case of G10A C11U A15G C30U C60G, the yeast fitness is reported as ≤ 0.5. With G10A C11U C30U the yeast fitness was ≤ 0.5. G10A C22G gave a yeast fitness of 0.637. With G10A C22U C30U G56C the yeast fitness was ≤ 0.5. In the case of G10A C24G C62U A65G, the yeast fitness is reported as ≤ 0.5. In the case of G10A C27A A36U A37U G48C, the yeast fitness is reported as ≤ 0.5. With G10A C27G A37U U54C C62A G68C the yeast fitness was ≤ 0.5. For G10A C27U C33U A43U U54C, the yeast fitness was ≤ 0.5. With G10A C29A C34G A43C C60G C66U the yeast fitness was ≤ 0.5. For G10A C29G C66U, the yeast fitness was ≤ 0.5. For G10A C29U C62U A70U, the yeast fitness was ≤ 0.5. In the case of G10A C30G C60G G63A A65U C66U, the yeast fitness is reported as ≤ 0.5. For G10A C30G C61U, the yeast fitness was ≤ 0.5. For G10A C31G C46G A57C, the yeast fitness was ≤ 0.5. For G10A C33G A37G A70G, the yeast fitness was ≤ 0.5. With G10A C33U A43U C49G G50C C61U C66U the yeast fitness was ≤ 0.5. With G10A C33U C49A the yeast fitness was ≤ 0.5. With G10A C33U C49U the yeast fitness was 0.663. For G10A C33U C60G G67A, the yeast fitness was ≤ 0.5. For G10A C34U G44A, the yeast fitness was ≤ 0.5. With G10A G12A C30G the yeast fitness was ≤ 0.5. With G10A G17A C31G G67C the yeast fitness was ≤ 0.5. In the case of G10A G17C C29G C49G, the yeast fitness is reported as ≤ 0.5. In the case of G10A G17C C30G C33G A45U G52A A70U, the yeast fitness is reported as ≤ 0.5. In the case of G10A G17C C30G C33G U53C A57C, the yeast fitness is reported as ≤ 0.5. For G10A G25C C29A G52A, the yeast fitness was ≤ 0.5. For G10A G25C C49G C66G, the yeast fitness was ≤ 0.5. In the case of G10A G39A U64C, the yeast fitness is reported as ≤ 0.5. With G10A G39C A57C the yeast fitness was ≤ 0.5. In the case of G10A G39C C66U, the yeast fitness is reported as ≤ 0.5. In the case of G10A G44A C66U, the yeast fitness is reported as 0.534. For G10A G48A A69C, the yeast fitness was 0.628. In the case of G10A G50C U54C, the yeast fitness is reported as ≤ 0.5. In the case of G10A G51A C66U, the yeast fitness is reported as ≤ 0.5. With G10A G51C C60U G67A the yeast fitness was ≤ 0.5. With G10A G52C the yeast fitness was 0.528. For G10A U13G C27U C46G A69C, the yeast fitness was 0.506. In the case of G10A U16A C60A, the yeast fitness is reported as ≤ 0.5. With G10A U16A G23A C30G G51C the yeast fitness was ≤ 0.5. In the case of G10A U16A U35C C49G C55A, the yeast fitness is reported as ≤ 0.5. For G10A U26G A65U, the yeast fitness was ≤ 0.5. In the case of G10A U47A A70G, the yeast fitness is reported as ≤ 0.5. For G10C A14G A45C, the yeast fitness was ≤ 0.5. For G10C A14U C22A A36G, the yeast fitness was ≤ 0.5. In the case of G10C A14U U19A C22U G51C, the yeast fitness is reported as ≤ 0.5. For G10C A21U C31G C34G, the yeast fitness was ≤ 0.5. With G10C A42C C55A G56A the yeast fitness was ≤ 0.5. With G10C A42U C46G the yeast fitness was ≤ 0.5. With G10C A57G C62G C66G the yeast fitness was ≤ 0.5. For G10C C22A A65C, the yeast fitness was ≤ 0.5. With G10C C22A C24G A36G G39C C55U C66U the yeast fitness was ≤ 0.5. For G10C C22A C24G A57U, the yeast fitness was ≤ 0.5. For G10C C22A C55U, the yeast fitness was ≤ 0.5. With G10C C22U C61U the yeast fitness was 0.518. For G10C C24G, the yeast fitness was ≤ 0.5. With G10C C24G G44C A45G G51C C55A A69U the yeast fitness was ≤ 0.5. With G10C C24U C29G G56A A65G C66A G68C the yeast fitness was ≤ 0.5.
